Assay results from PubChem BioAssay AID504467 (National Center for Advancing Translational Sciences (NCATS), 2011).
The campaign covered roughly 330,000 compounds. About 7,700 (2.3%) were called active. Inconclusive means that the source gave no clear call. Such entries were picked first, then a sample of the others. Calls come from the whole dose curve; as a rule, active = well fitted inhibition curve with a large enough effect; inconclusive = small, poorly fitted or top-dose-only effect, or effect the other way; inactive = flat fitted curve, though single readings scatter. A potency beside an inconclusive call is a rough fit, not a confirmed value.

experiment: qHTS screen for small molecules that inhibit ELG1-dependent DNA repair in human embryonic kidney (HEK293T) cells expressing luciferase-tagged ELG1; conditions: HEK293T ELG1-luciferase reporter, luminescence, 16 h, DNA damage induced by 5-fluorouridine; activity change, negative = inhibition: at 46.1 µM (top of the series); note: nearly all actives have a fitted effect of over 55% in size
Procedure, shortened: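 Step one: seed 2,000 cells per well. Step two: pin-transfer compound or DMSO alongside 5-fluorouridine. Step three: incubate 16 hr, 37 °C, 5% CO2. Step four: add ONE-Glo, wait 30 min, read luminescence.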
% is set by controls: 0 for no effect and ±100 for the full control effect; potency is the fitted concentration of half-maximal effect.

Row | SMILES | Potency | activity change, negative = inhibition
1 | COc1ccc(-c2csc(N(C)C(=O)c3ccco3)n2)cc1 | inconclusive: 12.6 µM [activator, partial curve, poor fit] | 
2 | CCOc1ccc(CNC(=O)c2ccccc2NC(=O)C2=CSCCO2)cc1 | inconclusive: 14.6 µM [inhibitor, single point] | 
3 | COc1cccc(C(=O)Nc2cccc(C(=O)NCC(C)C)c2)c1 |  | inactive: 1.9%
4 | CC(C)CC(c1nnnn1C1CCCC1)N1CCC(C(N)=O)CC1 (stereo not given) |  | inactive: 2.14%
5 | CCCCn1c(N)c(N(CCOC)C(=O)c2ccc(S(=O)(=O)N3CCCCCC3)cc2)c(=O)[nH]c1=O |  | inactive: 16.5%
6 | O=C(CCCN1C(=O)c2ccccc2C1=O)Nc1ccccc1 |  | inactive: -0.164%
7 | CCOC(=O)C1CCN(C(=O)CNC(=O)c2nn(-c3ccc(OC)cc3OC)c(=O)c3ccccc23)CC1 | inconclusive: 23.1 µM [activator, partial curve, poor fit] | 
8 | CN(C)C(=S)Nc1ccc2ccccc2c1 | inconclusive: 14.6 µM [activator, partial curve, poor fit] | 
9 | Oc1ccc(Nc2nc(-c3ccccc3O)nc3ccccc23)cc1 | inconclusive: 29.1 µM [inhibitor, single point] | 
10 | Cc1ccc(-c2nnc(Nc3ccc(CC(N)=O)cc3)c3ccccc23)cc1S(=O)(=O)NCC1CCCO1 (stereo not given) | inconclusive: 20.6 µM [inhibitor, partial curve, poor fit] | 
11 | CCOc1ccc(/C=N/NC2=NCCCCC2)cc1 | inconclusive: 32.6 µM [activator, partial curve, poor fit] | 
12 | CCn1c(COc2ccc(OC)cc2)nc2ccccc21 | inconclusive: 12.6 µM [activator, partial curve, poor fit] | 
13 | Cc1ccccc1NC(=O)Cc1nc(-c2c[nH]c(C(=O)N3CCCC3)c2)cs1 | active: 16.4 µM | 
14 | CCc1nc2ccccc2c(C(=O)OCC(=O)Nc2cccc(S(=O)(=O)NC3=NCCCCC3)c2)c1C | active: 13 µM | 
15 | CCCS(=O)(=O)c1c(S(=O)(=O)CCC)c2cnccn2c1C(=O)c1ccc(Cl)cc1 | inconclusive: 29.1 µM [inhibitor, partial curve, poor fit] | 
16 | COc1cc(NC(=O)CN2CCN(C(=O)C3CCCO3)CC2)c(OC)cc1Cl (stereo not given) |  | inactive: -1.64%
17 | CCn1c(NCc2cccc(OC)c2OC)nc2ccccc21 | inconclusive: 20.6 µM [activator, single point] | 
18 | CCCn1c(=O)c(C(=O)NCc2ccc(OC)c(OC)c2)c(O)c2ccccc21 | inconclusive: 29.1 µM [inhibitor, single point] | 
19 | C=CCN=C1N[C@@H](c2ccccc2)C(C(=O)OC)=C(C)N1CC |  | inactive: 0%
20 | Cc1cc2cc(CN(CCN3CCOCC3)C(=O)Nc3ccccc3F)c(=O)[nH]c2cc1C | inconclusive: 7.31 µM [inhibitor, partial curve] | 
21 | O=C(c1ccco1)N1N=C2CCCCCC2C1(O)C(F)(F)F (stereo not given) | active: 0.326 µM | 
22 | Cc1cccn2c(=O)c3cc(C(=O)NC4CCCC4)c(=N)n(C4CCCCC4)c3nc12 | inconclusive: 3.26 µM [activator, full curve, poor fit] | 
23 | COCCSc1ccccc1C(=O)Nc1ccc(Br)cc1 |  | inactive: 9.4%
24 | O=C(NCc1cccs1)c1cc(-c2ccccc2)nc2ccccc12 | inconclusive: 23.1 µM [inhibitor, single point] | 

Row | SMILES | Potency | activity change, negative = inhibition
25 | Cn1c(CN2CCOCC2)nnc1SCc1cccc(F)c1 |  | inactive: 5.45%
26 | N#Cc1ccc(C(=O)Nc2ccc(S(=O)(=O)NC3=NCCCCC3)cc2)cc1 | inconclusive: 18.4 µM [inhibitor, partial curve] | 
27 | Cc1c(C(=O)O)sc2nc(CSc3nnc(-c4ccc(F)cc4)n3C)[nH]c(=O)c12 | inconclusive: 1.16 µM [inhibitor, single point] | 
28 | S=C(NNc1ccnc2cc(Cl)ccc12)Nc1ccccc1Cl | inconclusive: 7.31 µM [inhibitor, partial curve, poor fit] | 
29 | CCOC(=O)c1c(C)nc(C(Cl)(Cl)Cl)nc1N | inconclusive: 18.3 µM [activator, partial curve, poor fit] | 
30 | Cc1ccc(NC(=O)c2nc[nH]c2C(=O)NCCCNC(=O)c2[nH]cnc2C(=O)Nc2ccc(C)cc2)cc1 | active: 5.17 µM | 
31 | O=C(c1ccc(Cl)cc1)c1oc2ccccc2c1CS(=O)c1ccccc1 (stereo not given) | inconclusive: 29.1 µM [inhibitor, single point] | 
32 | COc1ccc(C(=O)n2c(N)nc3ccccc32)cc1OC | inconclusive: 12.6 µM [activator, partial curve] | 
33 | COc1ccc(CCNC(=O)COC(=O)/C=C/c2cc(OC)ccc2OC)cc1 | inconclusive: 7.3 µM [inhibitor, partial curve, poor fit] | 
34 | COc1ccc(NC(=O)c2cc(-c3ccc(C)o3)nc3ccccc23)cc1OC | active: 14.6 µM | 
35 | Cc1cc(=O)n2[nH]cc(C(=O)O)c2n1 | inconclusive: 29.1 µM [activator, single point] | 
36 | Cc1ccc(C)n1-c1cc(S(=O)(=O)N2CCOCC2)ccc1N1CCCC1 |  | inactive: 9.04%
37 | Cc1ccc(NC(=O)CSc2nc3ccccc3nc2N2CCOCC2)cc1 | inconclusive: 14.6 µM [inhibitor, partial curve, poor fit] | 
38 | CCOC(=O)C(=CNc1cc(C)nn1-c1ccccc1)C(=O)OCC | inconclusive: 29.1 µM [inhibitor, single point] | 
39 | Cc1ccc(-c2cc(C(=O)N/N=C/C(Br)=C/c3ccccc3)n[nH]2)o1 |  | inactive: -27.1%
40 | Cc1coc2cc3oc(=O)c(CCC(=O)NCCCN4CCOCC4)c(C)c3cc12 |  | inactive: 2.91%
41 | CCCCCCN(C(=O)CCCCCN1C(=O)NC(c2ccc(C(C)(C)C)cc2)C(C(=O)OCc2ccccc2)=C1C)C(C(=O)NCCCC)c1ccc(OCC(=O)OC)c(C(=O)OC)c1 (stereo not given) | inconclusive: 23.1 µM [inhibitor, partial curve] | 
42 | O=C(Cc1ccccc1[N+](=O)[O-])NCc1ccccc1Cl | inconclusive: 10 µM [activator, partial curve] | 
43 | CCC(Sc1nc2ccccc2o1)C(=O)O (stereo not given) |  | inactive: 11.6%
44 | CC(=O)c1c(C)[nH]c(C(=O)OCC(=O)Nc2cccc(S(=O)(=O)N3CCCC3)c2)c1C | inconclusive: 10.3 µM [inhibitor, partial curve, poor fit] | 
45 | Cc1ccc(C(c2nnnn2Cc2cccs2)N2CCN(Cc3ccc4c(c3)OCO4)CC2)cc1 (stereo not given) |  | inactive: -20.3%
46 | OCCCc1nc2n(n1)C(c1cccs1)C=C(c1ccccc1)N2 (stereo not given) | inconclusive: 20.6 µM [inhibitor, single point] | 
47 | CN(C)S(=O)(=O)c1ccc(NC(=O)C2CC(=O)N(Cc3ccccc3Cl)C2)cc1 (stereo not given) |  | inactive: -6.56%
48 | Cc1ccc2cc3cc(C(=O)NCc4ccco4)oc3nc2c1 |  | inactive: 3.92%

Row | SMILES | Potency | activity change, negative = inhibition
49 | Cc1ccc(/C=N/NS(=O)(=O)c2ccccc2)o1 | inconclusive: 25.9 µM [activator, single point] | 
50 | CCN(CC)P(=O)(Nc1ccc(SC(F)F)cc1)c1ccc(N(C)C)cc1NC(=O)c1ccco1 (stereo not given) | active: 7.3 µM | 
51 | COc1ccc(Cl)cc1NC(=O)N1CCN(c2ccccc2OC)CC1 |  | inactive: 0%
52 | Cc1cccc(-c2cc(C(=O)NCCCn3ccnc3)c3ccccc3n2)c1 |  | inactive: 3.45%
53 | CCC1CCCCN1CCCNC(=O)c1ccc2c(c1)N(Cc1ccc(F)cc1)C(=O)c1ccccc1S2=O (stereo not given) | inconclusive: 29.1 µM [activator, single point] | 
54 | CCN(CC)c1ccc(C=Nc2ccc(C)cc2C)c(O)c1 | inconclusive: 23.1 µM [activator, single point] | 
55 | S=C(c1ccc(-c2ccccc2Cl)o1)N1CCOCC1 | inconclusive: 16.4 µM [activator, partial curve] | 
56 | O=C(Nc1cccs1)Nc1ccc(Br)cc1F | inconclusive: 14.6 µM [activator, partial curve] | 
57 | CN(C)c1oc(COc2ccc(F)cc2)nc1C#N | inconclusive: 20.6 µM [activator, single point] | 
58 | Cc1ccccc1NC(=O)c1ccc(COc2ccc3c(C)cc(=O)oc3c2)cc1 | inconclusive: 20.6 µM [activator, partial curve, poor fit] | 
59 | Clc1ccccc1CSc1nc2ccncc2[nH]1 | inconclusive: 14.6 µM [activator, partial curve] | 
60 | CCn1c(SCC(=O)N2CCCc3ccccc32)nc2c1c(=O)n(C)c(=O)n2C | inconclusive: 18.4 µM [inhibitor, partial curve] | 
61 | COc1ccc(/C=N\NC(=O)c2cccc(Br)c2)c(OC)c1 |  | inactive: 3.96%
62 | O=C(NC1CC1)c1ccc(S(=O)(=O)NCC2CCCCC2)cc1 |  | inactive: -3.86%
63 | COc1cccc(COC(=O)c2c(C)nn(-c3ccccc3)c2Cl)c1OC |  | inactive: -5.3%
64 | CC1CN(C(=O)CCCN2C(=O)c3ccccc3C2=O)CC(C)O1 (stereo not given) |  | inactive: -5.56%
65 | CC(C)(C)C(=O)Nc1nc2cc3c(cc2s1)OCO3 | inconclusive: 0.82 µM [activator, full curve] | 
66 | COc1ccc(SCCN2CC[C@@H](NC(=O)OCc3ccccc3)CCC2=O)cc1 | inconclusive: 29.1 µM [inhibitor, single point] | 
67 | COc1cccc(CSc2nc3ccccc3cc2C=O)c1 | inconclusive: 8.2 µM [activator, partial curve, poor fit] | 
68 | CCC(=O)N1N=C(c2ccc(NS(=O)(=O)c3ccc(C)cc3)cc2)CC1c1ccco1 (stereo not given) | inconclusive: 29.1 µM [inhibitor, single point] | 
69 | COC(=O)N=Nc1c(O)n(Cc2ccccc2)c2ccccc12 | inconclusive: 20.6 µM [activator, single point] | 
70 | COCCn1c(=S)[nH]c2cc(C(=O)NCCc3ccc(OC)c(OC)c3)ccc2c1=O | inconclusive: 10.3 µM [inhibitor, partial curve] | 

Rewritten as tab-separated lines: three of the compounds above
Row	SMILES	Potency	activity change, negative = inhibition
50	CCN(CC)P(=O)(Nc1ccc(SC(F)F)cc1)c1ccc(N(C)C)cc1NC(=O)c1ccco1 (stereo not given)	active: 7.3 µM	
62	O=C(NC1CC1)c1ccc(S(=O)(=O)NCC2CCCCC2)cc1		inactive: -3.86%
67	COc1cccc(CSc2nc3ccccc3cc2C=O)c1	inconclusive: 8.2 µM [activator, partial curve, poor fit]	
